Reference: publication PMC9454482
No constants are given. Whether binding was seen depends on the method and setting. In cells and extracts the contact can be indirect. Some binding calls cover weakened binding; strength is not graded here.

Amino acid sequences for entries named in this document (tags omitted).
UniProt Q9CQW9: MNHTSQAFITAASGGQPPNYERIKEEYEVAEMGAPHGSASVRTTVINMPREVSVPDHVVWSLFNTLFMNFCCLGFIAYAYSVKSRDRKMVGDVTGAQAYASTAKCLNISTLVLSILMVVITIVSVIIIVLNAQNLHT

Target: Interferon-induced transmembrane protein 3 (Ifitm3), mouse (mouse (endogenous in BM-DCs)) (UniProt Q9CQW9)
Experiment: co-IP; IP with anti-fragilis (Ifitm3) from lysates of wt and Ifitm3-/- BM-DCs infected with MCMV (MOI 1) for 3 h; Ifitm3 and Nogo-B detected by Western blot

binding: binds
B1: Nogo-B (reticulon 4 isoform), mouse (protein, UniProt Q99P72-5 1-356)
chain: MEDIDQSSLVSSSADSPPRPPPAFKYQFVTEPEDEEDEEDEEEEEDDEDLEELEVLERKPAAGLSAAPVPPAAAPLLDFSSDSVPPAPRGPLPAAPPTAPERQPSWERSPAASAPSLPPAAAVLPSKLPEDDEPPARPPAPAGASPLAEPAAPPSTPAAPKRRGSGSVVVDLLYWRDIKKTGVVFGASLFLLLSLTVFSIVSVTAYIALALLSVTISFRIYKGVIQAIQKSDEGHPFRAYLESEVAISEELVQKYSNSALGHVNSTIKELRRLFLVDDLVDSLKFAVLMWVFTYVGALFNGLTLLILALISLFSIPVIYERHQAQIDHYLGLANKSVKDAMAKIQAKIPGLKRKAE
